These are yes or no findings as the source states them, for the method shown. Binding seen in cells or lysates may run through a third protein. Some results given as binding are weak or reduced against the parent protein; the word gives no strength.
Tests used:
[1] = target: lamin A/C (human (endogenous in primary myoblasts)) (UniProt P02545); assay: proximity ligation; in situ PLA (Duolink) on methanol-fixed human myoblasts under basal (unstretched) conditions; anti-lamin A/C with anti-desmin or anti-plectin 1
[2] = target: lamin A/C (human (endogenous in primary myoblasts)) (UniProt P02545); assay: co-IP; lysate of stretched human myoblasts (50 mM Tris-HCl pH 7.5, 150 mM NaCl, 0.1% SDS, 1% NP-40), 500 ug, precipitated with anti-lamin A/C (E1) overnight at 4 °C, protein A/G; Western blot
[3] = target: lamin A/C (human (endogenous in primary myoblasts)) (UniProt P02545); assay: proximity ligation; in situ PLA (Duolink) on methanol-fixed human myoblasts after uniaxial cyclic stretching (10% strain, 1 Hz, 4 h); anti-lamin A/C with anti-desmin or anti-plectin 1; 100 nuclei counted per replicate

Protein sequences, listed by entry. Tags and fused reporters are not part of them.
UniProt P17661: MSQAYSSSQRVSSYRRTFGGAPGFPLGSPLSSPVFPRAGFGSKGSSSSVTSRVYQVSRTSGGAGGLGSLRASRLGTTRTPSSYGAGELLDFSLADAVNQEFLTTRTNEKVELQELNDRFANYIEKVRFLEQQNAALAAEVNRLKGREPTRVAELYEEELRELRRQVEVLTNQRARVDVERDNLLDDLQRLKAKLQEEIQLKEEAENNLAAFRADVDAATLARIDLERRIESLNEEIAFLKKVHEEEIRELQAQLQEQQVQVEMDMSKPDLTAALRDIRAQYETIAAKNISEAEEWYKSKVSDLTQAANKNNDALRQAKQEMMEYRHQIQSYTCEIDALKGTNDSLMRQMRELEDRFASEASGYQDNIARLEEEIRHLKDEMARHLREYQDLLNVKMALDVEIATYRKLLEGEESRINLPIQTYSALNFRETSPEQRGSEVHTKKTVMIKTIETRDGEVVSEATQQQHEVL

binding [1]: binds weakly | binding [2]: binds | binding [3]: binds
Substance: desmin (from UniProt P17661 1-470)

— article PMC10814836
